Test results from US11229657B2, “Targeting hypoxic cancer stem cells (CSCs) with doxycycline: implications for improving anti-angiogenic therapy” (LUNELLA BIOTECH, INC., priority 2017, dated 2022).

Test system: CSC propagation
Assay: IC-50s of metabolic agents for inhibiting CSC propagation (Table 3)
Assay type: cell-based
Conditions: Table 3, values given with nM
Method: Glycolysis is required to provide additional TCA cycle intermediates for the mitochondrial processing of Acetyl-CoA. […] Briefly, 2-deoxy-D-glucose (2-DG) or ascorbic acid were dissolved in culture medium. […] Bonuccelli et al. Oncotarget, 8: 20667-20678 (2017). […] 15, 2017, and Patent Cooperation Treaty (PCT) Patent Application PCT/US2018/022403, filed Mar. 14, 2018, the entireties of which are incorporated herein by reference; mitoketoscins, such as those disclosed in U.S. Provisional Patent Application No. 62/524,829, filed Jun. 26, 2017, the entirety of which is incorporated herein by reference; mitoflavoscins, such as those disclosed in U.S. Provisional Patent Application No. 62/576,287, filed Oct. 24, 2017, the entirety of which is incorporated herein by reference; TPP-compounds (e.g., 2-butene-1,4-bis-TPP), such as those disclosed in U.S. Provisional Patent Application No. 62/590,432, filed Nov. 24, 2017, the entirety of which is incorporated herein by reference; mDIVI1, such as those disclosed in U.S. Provisional Patent Application No. 62/608,065, filed Dec. […]

For `Cc1cc(/C=C/c2ccc3cc(N(C)C)ccc3[n+]2C)c(C)n1-c1ccccc1` [Pyrvinium pamoate], the IC50 was 100 nM.
